Results taken from article PMC4411755.

Target: T1, CTN-1/α-catulin tagged with the GAL4 DNA-binding domain (C. elegans) (UniProt G8JYB2)
T1 sequence: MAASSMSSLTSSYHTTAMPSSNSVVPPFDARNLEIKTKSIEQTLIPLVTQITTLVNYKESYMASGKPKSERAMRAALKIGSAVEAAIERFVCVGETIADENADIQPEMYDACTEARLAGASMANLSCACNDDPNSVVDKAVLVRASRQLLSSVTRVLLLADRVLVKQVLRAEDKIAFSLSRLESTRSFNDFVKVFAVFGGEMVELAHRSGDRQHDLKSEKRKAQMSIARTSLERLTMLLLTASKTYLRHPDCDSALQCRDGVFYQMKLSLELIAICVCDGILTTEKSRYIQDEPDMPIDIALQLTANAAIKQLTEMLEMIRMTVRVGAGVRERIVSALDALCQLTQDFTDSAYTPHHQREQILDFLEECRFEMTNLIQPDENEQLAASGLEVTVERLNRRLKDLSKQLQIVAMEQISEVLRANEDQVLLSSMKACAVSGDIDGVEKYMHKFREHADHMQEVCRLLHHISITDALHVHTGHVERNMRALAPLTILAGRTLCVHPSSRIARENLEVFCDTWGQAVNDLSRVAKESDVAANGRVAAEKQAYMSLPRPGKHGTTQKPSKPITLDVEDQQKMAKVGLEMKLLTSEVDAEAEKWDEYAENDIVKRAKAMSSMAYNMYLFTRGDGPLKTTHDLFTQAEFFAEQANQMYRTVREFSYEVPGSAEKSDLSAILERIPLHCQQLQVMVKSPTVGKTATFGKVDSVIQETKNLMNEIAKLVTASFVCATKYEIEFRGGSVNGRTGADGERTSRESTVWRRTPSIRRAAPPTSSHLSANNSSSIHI
Assay: two-hybrid; Matchmaker GAL4-based system (Clontech); ctn-1 fragments on the GAL4 DNA-binding domain (pGBKT7, strain Y187), slo-1 cDNA fragments on the GAL4 activation domain (pGADT7, strain Y2H Gold); mating, selection of diploids on quadruple dropout plates with 40 μg/ml X-α-Gal

| Substance | binding |
| --- | --- |
| SLO-1 RCK2 domain alone fused to the GAL4 activation domain (C. elegans) (domain or fragment) | no binding |
| SLO-1 RCK1 domain alone fused to the GAL4 activation domain (C. elegans) (domain or fragment) | no binding |

No constants are given. Whether binding was seen depends on the method and setting. Tags and fused reporters may be left off the sequences shown.
